## Results of single-concentration screens

Protein sequences, listed by entry. Tags and fused reporters are not part of them. Residues count along the entry.
UniProt Q8IDJ8, 1-583: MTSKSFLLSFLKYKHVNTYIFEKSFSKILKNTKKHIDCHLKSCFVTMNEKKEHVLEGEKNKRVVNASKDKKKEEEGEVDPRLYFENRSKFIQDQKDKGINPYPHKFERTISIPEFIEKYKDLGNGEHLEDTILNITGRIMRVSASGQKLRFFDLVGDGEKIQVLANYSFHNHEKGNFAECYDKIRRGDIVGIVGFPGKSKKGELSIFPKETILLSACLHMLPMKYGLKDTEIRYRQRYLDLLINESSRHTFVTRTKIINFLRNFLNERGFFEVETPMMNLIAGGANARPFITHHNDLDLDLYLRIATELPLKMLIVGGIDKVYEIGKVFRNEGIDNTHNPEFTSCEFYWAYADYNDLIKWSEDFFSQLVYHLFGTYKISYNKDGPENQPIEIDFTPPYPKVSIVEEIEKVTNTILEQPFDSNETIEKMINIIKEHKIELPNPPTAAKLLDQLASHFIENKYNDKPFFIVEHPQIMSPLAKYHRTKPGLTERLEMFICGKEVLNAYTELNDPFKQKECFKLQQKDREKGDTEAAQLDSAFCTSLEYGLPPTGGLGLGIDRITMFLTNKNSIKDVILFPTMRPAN

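Enzyme assay of the cytosolic lysyl-tRNA synthetase in 384-well plates, read by luminescence. Target: Lysine-tRNA ligase, Plasmodium falciparum 3D7 (UniProt Q8IDJ8). Tested at 30 µM. Higher reads as stronger inhibition, judged from the few compounds that gave an IC50. About 69,000 compounds were tested under these conditions; 0.071% (about 49) showed 50% or more at least once.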

Values are the deposited “Percent Effect”, in %.
The controls that fix the scale are not given in the record; negative values are as filed.
The compounds are a random part of those screened.

Result for c1csc(CCN2CCCC2c2noc(C3CC3)n2)c1 (configuration not stated) was 7.449%. O=C(c1ccnn1COc1ccc(Cl)cc1)N1CCOCC1 gave 0.3407%. Cc1occc(=O)c1OCC(=O)N1CCN(c2cccc(Cl)c2)CC1 gave 4.197%. Result for Cc1cc(C(=O)N2CC[C@@H]3CO[C@@H](CN4CCCC4)[C@@H]3C2)no1 was 3.194%. With CC(O)CN(CC(=O)NC(=O)NC1CC1)c1ccccc1 (configuration not stated) the screen gave 5.154%. For CCOC(=O)C1(Cc2cccc(Cl)c2)CCCN(Cc2ncc[nH]2)C1 (configuration not stated) the result was 3.799%. For O=C(c1ccoc1)N1CCc2c(COCC3CC3)cncc2C1 the result was -3.135%. With CCc1n[nH]c(C2CN(Cc3nnc(C4CC4)n3C)CCO2)n1 (configuration not stated) the screen gave 1.253%.

CC(C)Nc1ncccc1C(=O)NCc1ncc[nH]1 read 3.709%. COCC1CCN(S(=O)(=O)NCC2COc3ccccc3C2)CC1 (configuration not stated) read 0.1915%. Result for CC(=O)Nc1c(C)noc1/C=C\c1ccc(S(=O)(=O)N2CCCC2)cc1 was 1.109%. Result for CN(C)c1cc(C2CCCN2C(=O)c2ccc(=O)n(C)c2)ccn1 (configuration not stated) was 1.428%. With CSCC(=O)N1CCOC(c2nc(C)n[nH]2)C1 (configuration not stated) the screen gave 3.623%. Result for CC(C)c1nc(CC(=O)Nc2cnccc2O)cs1 was 1.409%. Cc1ccc(N2CC[C@H](OCC3CC3)[C@@H]2Cc2cccnc2)nn1 gave 3.275%. c1cc(CNc2ccc(-c3nc(C4CC4)no3)cn2)no1 read 1.402%.

Cc1cccc(OC2CCN(c3nccnc3C#N)CC2)n1 gave -1.538%. Oc1nc(N2CCOCC2)nc2c1CCN(Cc1cccnc1)CC2 gave 1.86%. Result for CC(C)NC(=O)CN1CCC2(CC1)OCCO2 was 0.6413%. CC(C)(C)NC(=O)c1ccn(COc2ccccc2Cl)n1 read 3.056%. COc1c(C2CCCN2Cc2nc(-c3ccco3)no2)c(C)nn1C (configuration not stated) read 0.03405%. Result for CSC1(CNC(=O)NC(C)Cc2cccc(F)c2)CCOCC1 (configuration not stated) was 3.174%. Cn1cc(C2=CCN(CCCC(=O)Nc3ccc(C#N)cc3)CC2)cn1 gave -0.09889%. With COc1cc(/C=C/c2ncc(C(=O)O)s2)cc(Cl)c1OC the screen gave 2.066%.

With Cc1ccccc1[C@@H]1CN(Cc2ccc(C(F)(F)F)nc2)C[C@H]1C(=O)O the screen gave 2.222%. With COCC1CN(C(=O)COc2ccccc2C)Cc2ncn(C)c21 (configuration not stated) the screen gave 7.288%. Cc1cnc(CN(Cc2ccc(C#N)cc2F)C2CCN(C)C2)o1 (configuration not stated) read 5.31%. With Cc1noc(CN2CCC(Cc3ccc(F)cc3)CC2)n1 the screen gave 3.695%. For Cc1cc(-c2cnc(NC3CCCC3)nc2-c2ccc(C)o2)on1 the result was 2.048%. With Cc1nnc(CNC(=O)CC2CCc3ccccc32)o1 (configuration not stated) the screen gave -2.162%. For O=c1[nH]nc(C2CC2)n1-c1cccc(Cl)c1 the result was 8.869%. Cc1cnc(CNC(=O)C[C@@H]2COC[C@H]3CN(C4CCC4)C[C@@H]23)cn1 read -0.3156%.

For CC(C)n1cc2cc(NC(=O)Cn3cnnn3)ccc2n1 the result was 2.596%. CCc1ccccc1CNC(=O)CNC(=O)C(C)(C)C read 4.415%.

For reference, 3 entries once more:

SMILES,effect
Cc1ccc(N2CC[C@H](OCC3CC3)[C@@H]2Cc2cccnc2)nn1,3.275
CSC1(CNC(=O)NC(C)Cc2cccc(F)c2)CCOCC1 (configuration not stated),3.174
CN(C)c1cc(C2CCCN2C(=O)c2ccc(=O)n(C)c2)ccn1 (configuration not stated),1.428

The values are deposited in ChEMBL (CHEMBL3988442, “University of Dundee, Small-Polar-MMV Screening Library” (2021)).